Data published in patent US20240117385A1, “ENZYMES OF LUCIFERIN BIOSYNTHESIS AND USE THEREOF” (LIGHT BIO, INC., priority 2018, published 2024).
Some entries share one result that the patent states for a list of compounds. Some compounds share one range, which may span the group rather than tell each member.

Tested on: Pichia pastoris GS115 cells, constitutively expressing Neonothopanus nambi luciferase
Test: Pichia pastoris colonies expressing hispidin hydroxylase homolog genes and luciferase, sprayed with hispidin
Assay type: cell-based
Settings: IVIS Spectrum CT; vs control cells

B1: SEQ ID NO: 19: coding sequence of hispidin hydroxylase of Armillaria mellea (nucleic acid, listed as Armillaria mellea)
DNA: ATGCAACAAATCGACGAAGCGCGCCCATTGAAAGTGATAGTAGTGGGTGCTGGACTTTGTGGGCTTTCCGCCGCCATTGCACTTCGTAGGCAAGGGCATCATGTTCATATACTTGAATCTTCAAGTTTTAAGAGCGAGCTTGGCGCAGGTCTCGCCGTCCCACCCAATACTGTACGCTCTCTTCGAGGCCTAGGTTGTAACATCGACAATCTCAAGCCCGTGGATAATTTGTGTTTCTCTGCCATGGCGCATGACGGAAGCCCAGGCATGATGAATAACATGACAGACTATCACAAGGCGTACGGTGATCCTTGGGTAATGGCACATCGTGTCGACCTCCATAACGAGCTCTTGCGAGTGGCTTTCGACCCCGAAGGAACAGGGCCTCCTGCTCAACTTCGTTTGGGCGTCCAGGTAGTGACTTGCGATATGGAAGCTTGTACAATTTCCCTTGTCGATGGAACAGTCTGTTCCGCCGATCTTATCGTAGGAGCTGACGGTATTAAGTCGACCATACGCTCCTGTGTTCTAGGCAAAGAAATAGACATACCTCCTACCGGTATCGCCGGATACCGCTGGCTCATACCGGCAGAAGCTTTGGAGCCCTATCCCGAGCTCGACTGGATTATCAAGAACCCACCCCTAGGAGCACGTTTAATCACGGATCCCGTACGCCGAACTGAACAAACGGATGACGGTAAGAAGGCTGACAAGCGCACGATCATAATCTATGCGTGCCGCAGTGGCACGATGATCAACGTTCTTGGTGTGCACGATGACCTGCGCAACCAGAATGAAGTCGGATGGAACGTACCAGTCACACGGGAAAACTTGCTGGAGTTTTTCGGGGACTACCACCCACGGTTTAAGCGTTTACTCCAGCTAGCCGATAGTATTCATTTGTGGCAAATGCGTGTTGTCCCACGGCTTGACACATGGATTAATAGATGCGTGTGTTTGCTGGGCGATTCTGCACATGCGTCATTACCAACTCTCGGGCAAGGCTTCGGAATGGGTCTTGAGGATGCCGTAGCTCTCGCAGCCCTCCTTCCGATGGGAACCAATGCGTCTGACGTTGAGAACCGCCTTATCGCCTACGAAAGCTTGCGTAAGGAGCGTGCAGAGTATGTAGCCACGGAATCATTAGAACAGCAGGATATTGCAGGAAAGCGAGGCTTGTATCTCAGGTCTCCTATGATGCGCGATAAAATAATGGGTTATGATATTAAAGCGGAAGCTGAGAAGGTTTTAATCGAATTAAAAAATTCGACAGCTCAGCAGGTCACT
luminescence at spraying with hispidin solution, times more than control cells: 1000-100000000 times
